From US20040071698A1 (UAB RESEARCH FOUNDATION, published 2004)
Results are given in words; binding and its absence hold for the method and conditions named. Binding calls can cover weak binding; strength is not graded here.

Columns and labels:
[1] = target: affinity purified epidermal growth factor receptor (EGFR) antigen (Sigma) (UniProt P00533); assay: ELISA, culture medium on coated EGFR
[2] = target: affinity purified epidermal growth factor receptor (EGFR) antigen (Sigma) (UniProt P00533); assay: ELISA, culture medium on coated EGFR, anti-myc and anti-mouse-HRP detection

B1: secretory anti-EGFR scFv clone 6 secreted by stably transfected U87MG.6.34.A8 cells (clone p6.34) (scFv, not shown: small tags and cut ends)
scFv: EVQLVESGGGLVQPGGSLRLSCSASGFTFSSYAMHWVRQAPGKGLEYVSAISSNGGSTYYADSVKGRFTISRDNSKNTLYLQMSSLRAEDTAVYYCVKDVGGSSWYWADYFDYWGQGTLVTVSSGSASAPKLEEGEFSEARVQSVLTQPPSLSVSPGQTASITCSGDKLGDKYASWYQQKPGQSPVLVIYQDRKRPSGIPERFSGSNSGNTATLTISGTQAMDEADYYCQAWDSSTPYVFGTGTKVTVLGQPKANPTVTLFPPSSAAA
notes: The scFv insert was moved from pSEX81 as a Bpu1102I/NotI fragment behind an Ig kappa leader; also called scFv p6.34; clone p6.34 scFv
binding [1]: binds
binding [2]: binds
